The text below walks through data of US6133443A, “Optically active 1,4-dihydropyridine derivatives and process for the preparation thereof” (Mercian Corporation, priority 1996, dated 2000).

A value given as a limit tells only on which side of the number the result lay.

By solubility is commonly meant the dissolved amount per volume that the medium holds. High values mean a readily soluble substance, low ones a poorly soluble substance.

The nature of this data set: physchem. The settings on record: deionized water.

The molecule `COC(=O)C1=C(C)NC(C)=C(C(=O)OC)C1c1ccccc1[N+](=O)[O-]` [nifedipine, reference compound] showed a solubility at 0.05 h of no more than 100 µg/mL.
